# Results are given in words; binding and its absence hold for the method and conditions named. In cells and extracts the contact can be indirect. Some entries that bind do so weakly or less than the wild type. Tags and fused reporters may be left off the sequences shown.
# T1: Myc-NAC1 (Arabidopsis, UniProt Q84TE6 1-324)
# T1 construct: Product of the 35S-6xMyc-NAC1 transgene in Arabidopsis thaliana; immunoprecipitated with anti-Myc antibody; also called 6xMyc-NAC1; Myc-tagged NAC1; not shown: 6xMyc tag
# T1 sequence (looked up): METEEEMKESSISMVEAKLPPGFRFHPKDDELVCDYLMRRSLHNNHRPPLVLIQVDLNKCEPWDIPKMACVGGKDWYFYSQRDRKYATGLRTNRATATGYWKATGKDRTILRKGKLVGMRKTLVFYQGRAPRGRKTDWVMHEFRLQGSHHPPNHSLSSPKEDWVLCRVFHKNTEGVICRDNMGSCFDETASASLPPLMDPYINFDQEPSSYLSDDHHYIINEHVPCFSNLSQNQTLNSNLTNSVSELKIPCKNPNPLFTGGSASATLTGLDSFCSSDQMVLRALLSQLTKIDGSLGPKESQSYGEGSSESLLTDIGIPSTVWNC
# T2: SINAT5 (wildtype) (Arabidopsis thaliana) (UniProt Q8S3N1)
# T2 sequence: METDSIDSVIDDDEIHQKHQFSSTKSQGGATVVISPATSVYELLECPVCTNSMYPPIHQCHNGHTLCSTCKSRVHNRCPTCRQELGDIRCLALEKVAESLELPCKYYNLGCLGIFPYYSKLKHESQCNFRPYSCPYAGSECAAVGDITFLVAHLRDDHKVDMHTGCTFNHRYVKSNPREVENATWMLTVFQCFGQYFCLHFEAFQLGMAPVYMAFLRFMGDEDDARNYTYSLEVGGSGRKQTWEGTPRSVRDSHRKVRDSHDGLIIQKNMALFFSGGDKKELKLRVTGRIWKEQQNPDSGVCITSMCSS
# T3: in vitro translated NAC1 (Arabidopsis) (UniProt Q84TE6)
# T3 sequence (looked up): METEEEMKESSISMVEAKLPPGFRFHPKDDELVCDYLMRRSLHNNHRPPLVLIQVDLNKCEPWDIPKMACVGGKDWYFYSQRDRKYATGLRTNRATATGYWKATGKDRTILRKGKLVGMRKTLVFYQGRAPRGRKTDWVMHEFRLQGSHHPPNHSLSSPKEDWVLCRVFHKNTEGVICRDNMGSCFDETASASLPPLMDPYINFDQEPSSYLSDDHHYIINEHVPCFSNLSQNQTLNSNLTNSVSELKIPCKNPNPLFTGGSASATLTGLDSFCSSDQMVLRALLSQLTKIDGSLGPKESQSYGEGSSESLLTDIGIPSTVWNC
# Assays:
# Myc-NAC1 = biological target: T1, Myc-NAC1; experiment: pull-down from extracts of transgenic plants, Western blot
# [1] = biological target: T2, SINAT5 (wildtype) (Arabidopsis thaliana); experiment: in vitro pull-down on amylose resin, 35S-labelled in vitro translated SINAT5
# [2] = biological target: T3, in vitro translated NAC1 (Arabidopsis); experiment: in vitro pull-down on amylose resin, 35S-labelled in vitro translated NAC1
binding (Myc-NAC1),binding [1],binding [2],Binder
binds,–,–,SINAT5 (C49S) mutant (enzyme) METDSIDSVIDDDEIHQKHQFSSTKSQGGATVVISPATSVYELLECPVSTNSMYPPIHQCHNGHTLCSTCKSRVHNRCPTCRQELGDIRCLALEKVAESLELPCKYYNLGCLGIFPYYSKLKHESQCNFRPYSCPYAGSECAAVGDITFLVAHLRDDHKVDMHTGCTFNHRYVKSNPREVENATWMLTVFQCFGQYFCLHFEAFQLGMAPVYMAFLRFMGDEDDARNYTYSLEVGGSGRKQTWEGTPRSVRDSHRKVRDSHDGLIIQKNMALFFSGGDKKELKLRVTGRIWKEQQNPDSGVCITSMCSS
–,binds,binds,"SINAT5 (wildtype) (enzyme, GenBank AF480944 is printed for the gene; also called WT SINAT5; SINA of Arabidopsis thaliana 5) METDSIDSVIDDDEIHQKHQFSSTKSQGGATVVISPATSVYELLECPVCTNSMYPPIHQCHNGHTLCSTCKSRVHNRCPTCRQELGDIRCLALEKVAESLELPCKYYNLGCLGIFPYYSKLKHESQCNFRPYSCPYAGSECAAVGDITFLVAHLRDDHKVDMHTGCTFNHRYVKSNPREVENATWMLTVFQCFGQYFCLHFEAFQLGMAPVYMAFLRFMGDEDDARNYTYSLEVGGSGRKQTWEGTPRSVRDSHRKVRDSHDGLIIQKNMALFFSGGDKKELKLRVTGRIWKEQQNPDSGVCITSMCSS"

# — patent US20040123349A1 (published 2004)
